Laboratory results taken from patent US5229366A, “Peptide-containing polyethylene glycol derivatives and application thereof” (Fuji Photo Film Co., Ltd., priority 1990, dated 1993).
At least one peptide structure holds a part that was inferred or is arguable (an end, a ring closure or a residue).

Key:
fibronectin = test: Cell adhesion-inhibitory test against fibronectin (competitive assay, coated plate); format: cell-based, human; details: endothelium cells of blood vessel, 157 at concentration 0
vitronectin = test: Cell adhesion-inhibitory test against vitronectin (competitive assay, coated plate); format: cell-based, human; details: endothelium cells of blood vessel, 243 at concentration 0
[1] = tested on: human plasma rich in platelet; test: Platelet coagulation-inhibitory activity in vitro (aggregometer transmittance); format: cell-based

N=C(N)NCCC[C@H](NC(=O)CN)C(=O)NCC(=O)N[C@@H](CC(=O)O)C(=O)N[C@@H](CO)C(=O)O [GRGDS, glycine-arginine-glycine-aspartic acid-serine pentapeptide]
Cell Adhesion-Inhibitory Effect Against Fibronectin (number of cohered cells) (fibronectin; 0.25 mg/ml): 152 × 10^2 cells/well
Cell Adhesion-Inhibitory Effect Against Fibronectin (number of cohered cells) (fibronectin; 0.5 mg/ml): 148 × 10^2 cells/well
Cell Adhesion-Inhibitory Effect Against Fibronectin (number of cohered cells) (fibronectin; 1.0 mg/ml): 91 × 10^2 cells/well
Cell Adhesion-Inhibitory Effect Against Fibronectin (number of cohered cells) (fibronectin; 1.5 mg/ml): 84 × 10^2 cells/well
Cell Adhesion-Inhibitory Effect Against Vitronectin (number of cohered cells) (vitronectin; 10 mg/ml): 156 × 10^2 cells/well
Cell Adhesion-Inhibitory Effect Against Vitronectin (number of cohered cells) (vitronectin; 50 mg/ml): 119 × 10^2 cells/well
Cell Adhesion-Inhibitory Effect Against Vitronectin (number of cohered cells) (vitronectin; 100 mg/ml): 81 × 10^2 cells/well
Cell Adhesion-Inhibitory Effect Against Vitronectin (number of cohered cells) (vitronectin; 300 mg/ml): 64 × 10^2 cells/well
Cell Adhesion-Inhibitory Effect Against Vitronectin (number of cohered cells) (vitronectin; 500 mg/ml): 62 × 10^2 cells/well
Platelet Coagulation-Inhibitory Activity IC50, ADP Stimulation [1]: 34 µg/mL
Platelet Coagulation-Inhibitory Activity IC50, Collagen Stimulation [1]: 23 µg/mL

N=C(N)NCCC[C@H](N)C(=O)NCC(=O)N[C@@H](CC(=O)O)C(=O)O [RGD, arginine-glycine-aspartic acid tripeptide]
Cell Adhesion-Inhibitory Effect Against Fibronectin (number of cohered cells) (fibronectin; 0.25 mg/ml): 154 × 10^2 cells/well
Cell Adhesion-Inhibitory Effect Against Fibronectin (number of cohered cells) (fibronectin; 0.5 mg/ml): 160 × 10^2 cells/well
Cell Adhesion-Inhibitory Effect Against Fibronectin (number of cohered cells) (fibronectin; 1.0 mg/ml): 142 × 10^2 cells/well
Cell Adhesion-Inhibitory Effect Against Fibronectin (number of cohered cells) (fibronectin; 1.5 mg/ml): 83 × 10^2 cells/well
Cell Adhesion-Inhibitory Effect Against Vitronectin (number of cohered cells) (vitronectin; 10 mg/ml): 154 × 10^2 cells/well
Cell Adhesion-Inhibitory Effect Against Vitronectin (number of cohered cells) (vitronectin; 50 mg/ml): 136 × 10^2 cells/well
Cell Adhesion-Inhibitory Effect Against Vitronectin (number of cohered cells) (vitronectin; 100 mg/ml): 107 × 10^2 cells/well
Cell Adhesion-Inhibitory Effect Against Vitronectin (number of cohered cells) (vitronectin; 300 mg/ml): 79 × 10^2 cells/well
Cell Adhesion-Inhibitory Effect Against Vitronectin (number of cohered cells) (vitronectin; 500 mg/ml): 63 × 10^2 cells/well
Platelet Coagulation-Inhibitory Activity IC50, ADP Stimulation [1]: 26 µg/mL
Platelet Coagulation-Inhibitory Activity IC50, Collagen Stimulation [1]: 21 µg/mL
